According to PMC7196314:
These are yes or no findings as the source states them, for the method shown. In cells and extracts the contact can be indirect. Some binding calls cover weakened binding; strength is not graded here.

Chains of the proteins cited; added tags and fusions are not shown.
UniProt P35222: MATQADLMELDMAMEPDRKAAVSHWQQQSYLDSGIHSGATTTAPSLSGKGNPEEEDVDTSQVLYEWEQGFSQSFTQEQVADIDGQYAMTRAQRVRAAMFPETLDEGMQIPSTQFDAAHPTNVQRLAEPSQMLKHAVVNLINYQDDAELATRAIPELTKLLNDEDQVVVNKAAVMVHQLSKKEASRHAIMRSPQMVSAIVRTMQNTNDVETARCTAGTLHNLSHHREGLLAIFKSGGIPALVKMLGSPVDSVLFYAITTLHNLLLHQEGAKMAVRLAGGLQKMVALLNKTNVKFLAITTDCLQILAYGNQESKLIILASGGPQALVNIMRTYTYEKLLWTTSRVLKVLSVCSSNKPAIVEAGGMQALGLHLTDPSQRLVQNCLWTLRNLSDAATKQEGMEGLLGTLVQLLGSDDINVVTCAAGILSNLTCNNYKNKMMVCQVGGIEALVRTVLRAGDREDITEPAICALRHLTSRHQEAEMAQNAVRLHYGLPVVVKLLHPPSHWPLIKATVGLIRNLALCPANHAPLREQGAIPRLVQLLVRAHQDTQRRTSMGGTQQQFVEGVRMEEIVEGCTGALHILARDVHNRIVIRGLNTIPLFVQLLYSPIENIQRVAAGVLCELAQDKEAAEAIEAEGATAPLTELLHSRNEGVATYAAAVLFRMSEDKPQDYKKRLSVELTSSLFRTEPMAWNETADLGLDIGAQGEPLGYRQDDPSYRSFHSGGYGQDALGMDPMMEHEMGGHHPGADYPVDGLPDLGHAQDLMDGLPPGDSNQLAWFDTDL

Biological target: T1, Forkhead box protein C1 (human (endogenous in RASFs)) (UniProt Q12948)
T1 sequence: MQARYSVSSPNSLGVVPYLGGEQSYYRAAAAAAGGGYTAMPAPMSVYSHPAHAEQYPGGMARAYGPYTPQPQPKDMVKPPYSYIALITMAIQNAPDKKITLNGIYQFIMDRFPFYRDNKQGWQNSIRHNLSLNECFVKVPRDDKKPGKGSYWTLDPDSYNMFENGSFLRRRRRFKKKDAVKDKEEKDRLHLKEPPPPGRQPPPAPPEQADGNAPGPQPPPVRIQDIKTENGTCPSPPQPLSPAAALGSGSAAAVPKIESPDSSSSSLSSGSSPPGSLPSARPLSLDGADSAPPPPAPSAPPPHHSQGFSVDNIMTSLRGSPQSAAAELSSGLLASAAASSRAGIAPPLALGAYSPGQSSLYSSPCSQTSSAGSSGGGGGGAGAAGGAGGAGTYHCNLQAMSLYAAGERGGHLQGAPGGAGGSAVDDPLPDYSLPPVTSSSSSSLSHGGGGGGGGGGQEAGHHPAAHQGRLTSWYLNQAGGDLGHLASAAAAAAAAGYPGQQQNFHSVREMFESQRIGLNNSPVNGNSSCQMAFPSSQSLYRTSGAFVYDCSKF
Experiment: co-IP; RASFs lysed in RIPA at 4 °C; supernatant incubated with FoxC1 antibody (ab5079), β-catenin antibody (L87A12) or normal IgG with protein A/G magnetic beads at 4 °C overnight; immunoblot

binding: binds
Substance: β-catenin (from UniProt P35222 1-781)
